The target of assay [1] is T1, Smc4 Q302L (S. cerevisiae) (UniProt Q12267).
T1 sequence: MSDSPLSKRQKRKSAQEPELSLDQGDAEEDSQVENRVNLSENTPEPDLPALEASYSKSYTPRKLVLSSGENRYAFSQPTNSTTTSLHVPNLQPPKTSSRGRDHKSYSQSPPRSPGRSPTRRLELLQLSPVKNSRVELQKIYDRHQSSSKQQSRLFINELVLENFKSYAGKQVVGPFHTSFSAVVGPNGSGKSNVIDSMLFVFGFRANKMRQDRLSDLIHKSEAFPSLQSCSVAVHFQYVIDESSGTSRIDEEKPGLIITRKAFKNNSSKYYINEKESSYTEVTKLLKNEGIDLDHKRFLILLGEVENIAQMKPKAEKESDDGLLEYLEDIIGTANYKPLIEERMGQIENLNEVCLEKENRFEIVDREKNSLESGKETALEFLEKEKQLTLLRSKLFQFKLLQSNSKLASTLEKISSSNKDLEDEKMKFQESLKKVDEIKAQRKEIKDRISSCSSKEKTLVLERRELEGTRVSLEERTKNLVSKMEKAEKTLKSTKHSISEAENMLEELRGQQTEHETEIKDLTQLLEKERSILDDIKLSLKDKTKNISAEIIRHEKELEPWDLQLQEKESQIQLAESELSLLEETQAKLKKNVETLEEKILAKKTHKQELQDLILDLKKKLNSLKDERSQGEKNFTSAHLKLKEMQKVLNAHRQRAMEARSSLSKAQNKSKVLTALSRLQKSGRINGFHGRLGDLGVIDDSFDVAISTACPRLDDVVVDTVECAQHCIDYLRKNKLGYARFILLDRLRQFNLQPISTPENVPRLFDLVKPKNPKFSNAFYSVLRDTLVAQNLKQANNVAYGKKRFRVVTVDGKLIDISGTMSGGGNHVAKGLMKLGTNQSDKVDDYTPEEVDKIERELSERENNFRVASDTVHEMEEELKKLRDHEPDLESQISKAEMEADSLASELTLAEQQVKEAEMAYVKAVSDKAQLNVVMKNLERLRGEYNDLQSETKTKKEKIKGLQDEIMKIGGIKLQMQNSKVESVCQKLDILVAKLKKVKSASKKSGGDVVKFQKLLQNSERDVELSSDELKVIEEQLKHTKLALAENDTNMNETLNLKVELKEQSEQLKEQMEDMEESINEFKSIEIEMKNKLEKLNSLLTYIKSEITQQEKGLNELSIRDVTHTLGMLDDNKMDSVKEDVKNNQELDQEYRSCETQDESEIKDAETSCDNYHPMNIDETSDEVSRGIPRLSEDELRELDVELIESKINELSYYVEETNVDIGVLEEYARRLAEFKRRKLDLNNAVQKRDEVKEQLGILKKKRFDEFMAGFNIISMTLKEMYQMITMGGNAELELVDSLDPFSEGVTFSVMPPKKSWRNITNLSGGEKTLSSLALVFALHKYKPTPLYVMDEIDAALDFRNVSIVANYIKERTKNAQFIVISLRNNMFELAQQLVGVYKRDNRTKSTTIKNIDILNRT
Nature of the assay: tandem affinity chromatography + SEC; subunits co-overexpressed in budding yeast; complexes purified from interphase cell extracts by the His12 tag on Brn1 and the triple StrepII tag on Smc4, followed by a gel filtration step. A general note: Size exclusion chromatography separates by hydrodynamic size, large species first.

The next assay addresses T2, Smc4 (S. cerevisiae) (UniProt Q12267).
T2 sequence: T1 sequence with L302Q
The description is as above.

Residue numbers refer to the chain shown, from its start. These are yes or no findings as the source states them, for the method shown. Some entries that bind do so weakly or less than the wild type.

B1: Ycs4 (protein, UniProt Q06156 1-1176)
chain: MSGFSLSEYLTKFQTTDRESYPRLQDPSRELNVIIDQLAVSPEQIDASPDSLEALIDLCHDFPHLTPKLQTQLSYLISSSLSNLSKDIKANLSSNVNFTEIGGLIPQWKRHLEEYGYLIQVLLTFLQDELHKVSSQSTNLNRSAKNSKNDSANVELFKRDCNQMENLLESITKLLEINLSKIFQTTPEKDLFIGLFTRPLFVLLEIEPVTKVSSLKMFIQRILAMCVKNHGQSSSIQSSLMTNLTYFLHLSVFNAELLKLLNDEYNYPQLTEDILKEISTRVFNAKDTTGPKAISNFLIKLSELSPGIMLRQMNLVITLLNNSSITLRCSVVEACGNIVAELAQDPQTMEHYKQQIAVLIELLEERFQDSNPYVRTKAIQGCSKICDLSSKFNKSKAKFTSLAVRSLQDRSSLVRRNSVKLLSKLLLKHPFKAIHGSQLRLSEWEEYLKGSESQLNSTLKKVESQETLNDTIERSLIEEEVEQDEGQCRTELEGSFNKSAELSRIENEVENINATNTSVLMKLKLMIVYYKDAISFIKEIHKSIELISNLLFSKNRNEVLESMDFLVLADAFDIELSEFGIKKMLHLVWMKGTNDEGTSISVHLIECYKQLFLTAPDSCNMQEKAAHIAKNLINLSIGASIADLASLEQLLGMMYEQKLIDQHVINILWAIYNSASKASMQKEQNVNNRDSEKGFSKEQIHGSIIILGMLSLADNEIALKGLESLLNIGLGAVGLKDLTLCRYSCLALERMVPKRSTIITKAINQELEDVAVKKLYAIIINYTKDNEYYPMCEQALSALFTISSKPDILATDLIREKTMMTFGKPEEEDSILSLEQSSRVVSLSQLLFIVGQVAIKTLVYLEKCEAEFKKRKIEAETRNGKVKNQGADVTNTTQDNGGDKELEMIGGTNEDDFTDAIQFVKENELLFGEKSILGKFCPIVEEIVSNSSRFSDPMLQRTATLCLEKLMCLSSKYCEKSLPLLITVMEKSPDPTIRSNAVLGLGDMAVCFNNLVDENTDYLYRRLHDENLMVQRTCLMTVTFLILAGQVKVKGQLGEMAKCLDNPDQGISDMCRLFFTELASKDNAIYNGFIDIFSNLSSDDLLGKESFKKIIKFLLTFIDKERHQKQLNEKLVGRLRKCETQKQWDDIAFVLNNLPYKNEDVTALLEQGFKVVSAKE
Turning to B1, the binding result (in assay [1]; in the assay with Smc4 (S. cerevisiae)) was “binds” throughout.
